No constants are given. Whether binding was seen depends on the method and setting. For some assays here: Binding seen in cells or lysates may run through a third protein. Some results given as binding are weak or reduced against the parent protein; the word gives no strength.

By UniProt entry, the sequences of proteins in these tests, tags left out.
UniProt P61201: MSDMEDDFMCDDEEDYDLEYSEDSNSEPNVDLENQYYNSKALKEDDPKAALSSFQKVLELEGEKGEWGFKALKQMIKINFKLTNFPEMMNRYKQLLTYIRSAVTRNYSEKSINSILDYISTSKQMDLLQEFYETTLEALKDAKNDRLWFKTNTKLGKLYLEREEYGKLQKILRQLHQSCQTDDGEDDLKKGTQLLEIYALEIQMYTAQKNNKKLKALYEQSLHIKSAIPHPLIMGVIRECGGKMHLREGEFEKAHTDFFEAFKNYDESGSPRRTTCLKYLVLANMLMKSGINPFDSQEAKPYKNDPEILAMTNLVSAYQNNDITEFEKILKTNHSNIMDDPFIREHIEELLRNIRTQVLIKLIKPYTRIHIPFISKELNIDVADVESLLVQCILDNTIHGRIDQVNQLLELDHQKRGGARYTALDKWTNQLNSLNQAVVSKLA
UniProt Q93034: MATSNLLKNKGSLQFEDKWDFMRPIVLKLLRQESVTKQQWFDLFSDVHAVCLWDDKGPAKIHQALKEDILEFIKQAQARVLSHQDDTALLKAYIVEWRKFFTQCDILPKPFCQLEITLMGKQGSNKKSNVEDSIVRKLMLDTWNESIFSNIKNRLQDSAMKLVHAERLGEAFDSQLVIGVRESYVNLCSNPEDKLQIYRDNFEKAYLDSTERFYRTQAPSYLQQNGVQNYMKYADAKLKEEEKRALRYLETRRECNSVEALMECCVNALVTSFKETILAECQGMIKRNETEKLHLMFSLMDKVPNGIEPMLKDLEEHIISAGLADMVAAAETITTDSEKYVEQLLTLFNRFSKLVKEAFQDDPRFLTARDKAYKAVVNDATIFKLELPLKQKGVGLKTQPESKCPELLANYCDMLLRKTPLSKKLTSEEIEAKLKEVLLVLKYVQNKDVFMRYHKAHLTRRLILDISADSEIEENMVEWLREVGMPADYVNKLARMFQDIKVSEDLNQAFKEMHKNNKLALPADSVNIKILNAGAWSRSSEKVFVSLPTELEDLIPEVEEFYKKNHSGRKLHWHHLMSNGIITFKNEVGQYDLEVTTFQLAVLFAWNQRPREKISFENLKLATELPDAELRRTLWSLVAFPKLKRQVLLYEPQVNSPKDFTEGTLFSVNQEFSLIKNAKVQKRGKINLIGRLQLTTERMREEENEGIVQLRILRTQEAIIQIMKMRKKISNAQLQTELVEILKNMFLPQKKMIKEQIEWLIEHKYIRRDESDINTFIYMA
UniProt Q92466: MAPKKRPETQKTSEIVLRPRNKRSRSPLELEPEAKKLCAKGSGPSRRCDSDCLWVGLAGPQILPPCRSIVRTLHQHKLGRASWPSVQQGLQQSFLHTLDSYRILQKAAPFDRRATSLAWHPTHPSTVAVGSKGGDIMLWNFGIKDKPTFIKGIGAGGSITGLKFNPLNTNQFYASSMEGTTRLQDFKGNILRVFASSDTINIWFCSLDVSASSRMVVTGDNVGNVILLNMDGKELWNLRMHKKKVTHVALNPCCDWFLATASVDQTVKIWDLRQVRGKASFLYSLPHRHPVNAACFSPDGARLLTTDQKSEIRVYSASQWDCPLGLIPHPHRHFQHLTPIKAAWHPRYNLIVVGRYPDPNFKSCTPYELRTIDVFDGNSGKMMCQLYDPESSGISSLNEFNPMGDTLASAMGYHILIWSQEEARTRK

The target in assay [1] is CSN5^DM, CSN5 E76A/D151N (human) (UniProt Q92905). Description: cryo-EM structure; N8~CRLs (CRL1, CRL2, CRL3, CRL4A, CRL5) mixed with CSN^DM at a 3:1 ratio, 30 minutes on ice, about 4.5 mg/ml; both purified.
Assay [2] has as its target HBTH-tagged CSN2 (human) (UniProt P61201). Kind of assay: pull-down; affinity purified HBTH-CSN2 complexes (streptavidin resin) from cells with or without CSN5i-3, immunoblotting.

Regarding CUL5 (from UniProt Q93034 1-780), the binding result in assay [1] is “binds”.
For DDB2 (from UniProt Q92466 1-427), the binding entry in assay [2] is reported as “binds”.

Values taken from paper doi:10.1101/2025.11.26.690573.
